Experiment [1] addresses T1, interferon-gamma receptor subunit 2 (IFN-γR2) (UniProt P38484 28-247, limits assumed).
T1 construct: Soluble purified protein (crystallised; analyte in SPR)
T1 sequence (looked up): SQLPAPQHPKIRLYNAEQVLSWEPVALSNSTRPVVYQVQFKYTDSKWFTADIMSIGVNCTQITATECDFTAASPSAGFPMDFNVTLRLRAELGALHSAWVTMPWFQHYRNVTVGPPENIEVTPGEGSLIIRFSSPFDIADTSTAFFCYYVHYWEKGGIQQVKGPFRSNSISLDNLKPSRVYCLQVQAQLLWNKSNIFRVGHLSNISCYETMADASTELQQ
Nature of the experiment: crystal structure of the hexameric complex.

In experiment [2] the target is T1, interferon-gamma receptor subunit 2 …. Nature of the experiment: crystal structure of the hexameric complex (FIG. 1).
The target in experiment [3] is T2, interferon-gamma receptor subunit 1 (IFN-γR1) (UniProt P15260).
T2 sequence (looked up): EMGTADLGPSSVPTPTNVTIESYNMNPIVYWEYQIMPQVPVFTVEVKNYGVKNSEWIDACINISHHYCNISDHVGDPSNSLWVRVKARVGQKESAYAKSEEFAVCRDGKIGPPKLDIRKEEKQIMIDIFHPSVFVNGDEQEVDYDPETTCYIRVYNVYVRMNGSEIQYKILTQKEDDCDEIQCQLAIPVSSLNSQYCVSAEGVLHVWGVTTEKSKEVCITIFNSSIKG
Kind of experiment: SPR, Biacore T100; IFN-γ at 50 nM saturating IFN-γR1 captured on SA-chip (about 100 RU).

Experiment [4] deals with wild-type 2:2 IFN-γ/IFN-γR1 intermediate complex (human) (UniProt P15260). Kind of experiment: SPR (FIG. 3B).
The target is the same in experiment [5]. Nature of the experiment: SPR, Biacore T100, equilibrium; IFN-γR1 captured on SA-chip, 50 nM IFN-γ in all IFN-γR2 dilutions. (SPR reads the build-up and loss of mass on a sensor chip optically.)
Experiment [6] shares this target. Nature of the experiment: SPR (Biacore T100, equilibrium method); about 100 RU of IFN-γR1 captured on an SA chip; wild-type IFN-γ at 50 nM in all dilutions of IFN-γR2; reference channel with an unrelated cytokine receptor.
Experiment [7] concerns the target T2, interferon-gamma receptor subunit 1 (IFN-γR1). Kind of experiment: SPR, Biacore T100; mutant IFN-γ at 50 nM saturating IFN-γR1 captured on SA-chip (about 100 RU).

These are yes or no findings as the source states them, for the method shown. Some entries that bind do so weakly or less than the wild type.

For the molecule “wild-type human interferon-gamma (IFN-γ) (from UniProt P01579 24-156) (ligand)”, the binding result in experiment [1], in experiment [2] and in experiment [3] was “binds” in each case.

B1: interferon-gamma receptor subunit 2 (IFN-γR2) (receptor, UniProt P38484 28-247, looked up)
chain: T1 sequence (looked up)
Take B1: the binding entry in experiment [4], in experiment [5] and in experiment [6] was “binds” throughout.

B2: triple IFN-γ mutant having three amino acid substitutions K74A, E75Y, and N83R (ligand)
chain: QDPYVKEAENLKKYFNAGHSDVADNGTLFLGILKNWKEESDRKIMQSQIVSFYFKLFKNFKDDQSIQKSVETIAYDMNVKFFRSNKKKRDDFEKLTNYSVTDLNVQRKAIHELIQVMAELSPAAKTGKRKRSQ
notes: also called IFN-γ (K74A/E75Y/N75R); IFN-γK74A/E75Y/N83A
Turning to B2, in experiment [7], the binding entry is “binds”.
